The values below come from article PMC10163288.

B1: il2ra_site2_3nfp_normal_mot_HHH_b1_06586_000000201_0001_1_18_H_._HHH_b2_00207_0001_0000400016_0000001_0 (protein)
chain: SSSSSDEREFREAVRSALRLAEQIPDERIRRLALEWARAVALMLGDEELERLVEEVERELSSSSS
B2: il2ra_site2_2erj_normal_mot_HHH_b2_07568_000000046_0001_18_34_H_._HHH_b2_05401_0001_0000100005_0000001_1 (protein)
chain: SSSSDVEELLREAEELLEKGNPEEAAKVLREASERVFRLGDFELFSRIAELVLKVFRALNSSSSS
B3: il2ra_site2_2erj_sap_25_mot_HHH_b2_03871_000000240_0001_40_57_H_._ems_p1-15H-GBL-16H-GABBL-16H_0175_0001_0001_0002_0001_0000900032_0000001_0_0001_af2pred_0001_a … (protein)
chain: SSSSSEAEEAFRKAEELVEEGNLEKAAAVASLAMKLALEEGDEELFKRILELSFELAELLNSSSS
B4: il2ra_site2_2erj_sap_19_mot_HHH_b2_07456_000000168_0001_40_55_H_._HHH_b1_03179_af2_0001_0000400015_0000001_0_0001 (protein)
chain: SSSSSDETLEALEEMAEEAFERGDREELEYLYEFLRLTAETSNDPKLRELLEFIEQLLEELSSSS
B5: il2ra_site1_2b5i_normal_mot_HHH_b2_04131_000000150_0001_1_16_H_._HHH_b1_07426_af2_0001_0000600027_0000001_0_af2pred_dldesign_0_af2pred (protein)
chain: SSSSSDPAAAKRRALELFRQLNELTDPEERRRLLEEAIELAEAAKNEKLLEILRRALEELSSSSS
B6: il2ra_site1_2b5i_normal_mot_HHH_b1_08745_af2_000000166_0001_39_57_H_._HHH_b1_08025_0001_0000100001_0000001_0_af2pred_0001_af2pred_1 (protein)
chain: SSSSSELAREVVELIEEANRLLENGNPEEARRVLEEALELAREGNNPALERFVESALRATESSSS
B7: il2ra_site1_2b5i_normal_mot_HHH_b1_02271_000000068_0001_1_16_H_._HHH_b2_04126_af2_0001_0000300042_0000001_0_af2pred_dldesign_0_af2pred (protein)
chain: SSSSSPEREEVERLIARARELHAAGRRREALETLEEAKKIADAANDEELIDRIEELAKELSSSSS
B8: il2ra_site1_3nfp_sap_19_mot_HHH_b2_02224_000000045_0001_1_19_H_._HHH_b2_00858_af2_0001_0000400028_0000001_0_0001_af2pred_0001_af2pred_1 (protein)
chain: SSSSSTEVSRRVDELIRLLLKARSEEEIEEVFEEVRRLAEEANDPLAKRLVRLAYERARSSSSSS
B9: il2ra_site1_3nfp_normal_mot_HHH_b1_05128_000000175_0001_22_38_H_._HHH_b1_04028_0001_0000700042_0000001_0_af2pred_0001_af2pred_1 (protein)
chain: SSSSSDEHRRVFELIVQALRLLLEGNPEEARELLEEARELAEELGSEVAKELLESFERRLNSSSS
B10: il2ra_site1_1z92_sap_15_mot_HHH_b1_07293_af2_000000029_0001_1_19_H_._HHH_b1_01454_0001_0000200009_0000001_0_0001 (protein)
chain: SEEIEELLREILKKLTNPAQRFLIEQLLRKLEKGNEEAVRKLIERFVRAVGDPELKEVLRLLKET
B11: il2ra_site2_2erj_normal_mot_HHH_eva_0077_000000062_0001_1_20_H_._7893fd715048dbce5e23317e54f1e302_0001_0001_0000500027_0000001_0_af2pred_0001_1_af2pred_swapped (protein)
chain: DEEEALREVAEILGVPPEAVKREVEQAKKVFGDPHAVRKFLAALLRSAGVPPEEAERLAELLLRG
B12: il2ra_site2_2erj_normal_mot_HHH_b1_01555_af2_000000123_0001_22_39_H_._HHH_b1_05014_af2_0001_0000300033_0000001_1 (protein)
chain: SSSSDEAELAARFLEEEVEELEEEGDPERAKSLLRLALRFARLSGDEELVERLERLLEELRSSSS
B13: il2ra_site1_1z92_sap_13_mot_HHH_b2_02761_000000226_0001_1_18_H_._HHH_b1_06544_0002_0000100004_0000001_0_0001_af2pred_0001_af2pred_1 (protein)
chain: SSSSSTERALERLVRSLVRIAGLSEEQEEELREVAERLLEEGVDLREIARILDEVAQRLDSSSSS
B14: il2ra_site1_2b5i_sap_15_mot_HHH_b1_06844_000000212_0001_1_18_H_._HHH_b2_07277_af2_0001_0000100004_0000001_0_0001_af2pred_0001_af2pred_1 (protein)
chain: SSSSSSSDQEELIRELIELAEQIEDKKRARAILSMAKSLARHANNPELEEEVEKLLEELSSSSSS
B15: il2ra_site2_2erj_normal_mot_HHH_b1_08185_000000063_0001_41_55_H_._HHH_b2_06415_0001_0000400008_0000001_0 (protein)
chain: SSSSSEVEEEVLEILAKAIEAAHEGNPEEARRLLEEALRLAREGNNPLLERYIELALEDLSSSSS
B16: il2ra_site1_3nfp_sap_10_mot_HHH_b2_07963_000000084_0001_1_20_H_._HHH_b2_07386_0001_0000100006_0000001_0_0001_af2pred_0001_af2pred_1 (protein)
chain: SHEVAQRLVRLALEFGSLERVLRDLIKSARRAGDPELVELLEEALRLVEEGDPEEAVRLAEEALE
B17: il2ra_site1_2b5i_normal_mot_HHH_b1_07881_af2_000000049_0001_1_19_H_._HHH_b1_06755_af2_0001_0000200019_0000001_0 (protein)
chain: SSSSDEEFERLEELFHEASRLWRKGDQEEARKLLEEAIRLARELGDERIVEQLEELLRRLSSSSS
B18: il2ra_site1_1z92_sap_19_mot_dcc082f2f05f1f568a7f06b444f4667a_0001_1_000000057_0001_35_49_H_._bc00b440d29913a483da04f69f237b60_0001_af2_0001_0000100001_0000001_0 … (protein)
chain: SSSSDEEARELLEAIARLIREFGLNLEQIQELLRLARELDQRGVSVEEIEELLRELAKELSSSSS

Some of the results follow.

In the assay the target is il2ra, P01589. The assay can be described thus: yeast display titration.
On to B1, for which the “apparent Kd” value is “inactive: no binding seen”.

Consider B2, for which the “apparent Kd” value was “inactive: no binding seen”.

As to B3, the “apparent Kd” value was “inactive: no binding seen”.

Turning to B4, the “apparent Kd” value is “inactive: no binding seen”.

Regarding B5, the “apparent Kd” value is “inactive: no binding seen”.

Consider B6, for which the “apparent Kd” value was “inactive: no binding seen”.

For the molecule B7, the “apparent Kd” value is “inactive: no binding seen”.

For B8, the “apparent Kd” value was “inactive: no binding seen”.

B9: the “apparent Kd” value is “inactive: no binding seen”.

On to B10, for which the “apparent Kd” value is “inactive: no binding seen”.

With B11, the “apparent Kd” value was “inactive: no binding seen”.

With B12, the “apparent Kd” value is “inactive: no binding seen”.

As for B13, the “apparent Kd” value is “inactive: no binding seen”.

For B14, the “apparent Kd” value was “inactive: no binding seen”.

Regarding B15, the “apparent Kd” value is “inactive: no binding seen”.

For B16, the “apparent Kd” value is “inactive: no binding seen”.

For B17, the “apparent Kd” value was “inactive: no binding seen”.

With B18, the “apparent Kd” value is “inactive: no binding seen”.
